From PMC11092868, “Mapping Novel Frataxin Mitochondrial Networks Through Protein- Protein Interactions” (Research Square, 2024)
Results are given in words; binding and its absence hold for the method and conditions named.

Target: Peroxiredoxin 3, endogenous human (human (endogenous in A549, lymphoblasts and dermal fibroblasts)) (UniProt P30048)
Test: condition: only with β-mercaptoethanol in Laemmli buffer; non-reducing SDS-PAGE and immunoblot after NEM alkylation; lysis in alkylation buffer with 100 mM N-ethylmaleimide and 10 ug/mL catalase; oxidized dimers against reduced monomers; with or without beta-mercaptoethanol in Laemmli buffer

binding: no binding
B1: Peroxiredoxin 3, endogenous human (natural protein, UniProt P30048 62-256, looked up)
chain: APAVTQHAPYFKGTAVVNGEFKDLSLDDFKGKYLVLFFYPLDFTFVCPTEIVAFSDKANEFHDVNCEVVAVSVDSHFSHLAWINTPRKNGGLGHMNIALLSDLTKQISRDYGVLLEGSGLALRGLFIIDPNGVIKHLSVNDLPVGRSVEETLRLVKAFQYVETHGEVCPANWTPDSPTIKPSPAASKEYFQKVNQ
notes: Peroxiredoxin 3, mitochondrial, human; also called Prdx3; PRDX3; source: endogenous: A549 cells (BioID); human lymphoblast lysate fractions (co-IP); human dermal fibroblast lysate (redox blot)
